# Measurements: the supplement of paper PMC3334620
# Whole data set: some 33,000 sequences, median “E-score (-0.5 to 0.5)” near -0.0034, cut for the highest 2% near 0.25. This is one part of the list.
# Target: T1, Yap3 (UniProt P38749)
# T1 sequence: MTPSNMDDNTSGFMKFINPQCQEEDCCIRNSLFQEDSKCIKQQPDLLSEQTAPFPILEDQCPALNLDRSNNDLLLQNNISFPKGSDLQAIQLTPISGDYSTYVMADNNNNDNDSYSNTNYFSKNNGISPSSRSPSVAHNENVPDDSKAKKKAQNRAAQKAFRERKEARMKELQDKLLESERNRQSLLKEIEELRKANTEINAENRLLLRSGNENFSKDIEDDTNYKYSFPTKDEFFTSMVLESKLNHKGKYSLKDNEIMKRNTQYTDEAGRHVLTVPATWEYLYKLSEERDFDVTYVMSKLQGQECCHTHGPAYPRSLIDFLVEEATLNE
# Assay: PBM E-score (8-mer binding enrichment) (E-score (-0.5 to 0.5)); higher = stronger / more preferred TF binding
# Settings: protein concentration: 100 nM; construct: GST-full length
# Outline: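 Yeast transcription factors, full-length or as DNA-binding domains, were expressed with a GST tag using PURExpress in vitro transcription/translation. At about 100-200 nM they were applied to universal all-10-mer Agilent arrays, double-stranded by primer extension on fresh or once-stripped slides. Fluorescent anti-GST detected bound protein, and masliner normalised the scans. E-scores for ungapped eight-base words, pooled with reverse complements, came from the Universal PBM Analysis Suite.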
row,Sequence,PBM E-score
1,GGACACCC,-0.305
2,TGGACCCA,-0.0603
3,AAGCGAGC,0.0346
4,AACCAATC,0.087
5,TGACAAAA,0.207
6,TGCGCCCA,-0.158
7,TCACGGGA,0.154
8,AGATACAT,0.179
9,GGAAAGTA,0.164
10,AACTGTGA,0.101
11,CCCGTCAG,-0.308
12,ACCCCTCA,-0.17
13,GAACCTGA,-0.0153
14,CAGCTTAA,-0.0332
15,CATCGCAA,-0.19
16,ACCTTCGA,-0.133
17,GGACAACA,0.0579
18,ACACGACT,0.0807
19,CTATATTA,0.325
20,CCCATAGC,-0.245
21,ATGACCCA,0.198
22,CCAAATTC,0.0333
23,AGGGGACA,-0.04
24,ATTGTAGG,0.25
25,CCCTGGAG,-0.304

row,Sequence,PBM E-score
1,CGGGCAAG,-0.0825
2,CTACTGAA,-0.155
3,TACTTCAA,0.191
4,GTCGGGAA,-0.0187
5,CCCCCGTA,-0.319
6,CCTACCTC,-0.162
7,CAAGGTAC,-0.113
8,CATGTCTC,0.0762
9,GGTGGCAA,-0.114
10,AGAGTTGG,-0.0231
11,CGATAAGA,0.0476
12,CAACGTAA,0.124
13,ATAATTGC,0.127
14,CGTCTGAG,-0.0194
15,AAGAAGTG,0.0425
16,ATTACAGA,0.11
17,ATACGTAC,0.0322
18,CGTTCATC,-0.0385
19,GAGCCCAC,-0.212
20,CCTGAACA,0.00555
21,ACGGTGGA,-0.139
22,AGTGAAAT,0.0637
23,CCTAAGTC,-0.166
24,ACTCGACT,-0.0208
25,GACTTCTA,-0.145

row,Sequence,PBM E-score
1,AGGCAGAC,-0.205
2,GGGCGTAA,-0.0188
3,CCTCTAAG,-0.133
4,CTGGCCTC,-0.139
5,ACCATCAG,-0.0749
6,CATTGGAA,0.0862
7,AGCTTATA,-5e-05
8,ACTTCACC,0.0212
9,CCCTGAGC,-0.176
10,ACTATAGG,-0.116
11,CGGGGGAC,-0.316
12,AATCTCCA,-0.0281
13,CAAAGTAG,-0.0464
14,TAGTGTAA,0.0898
15,ATCAAGTG,-0.00308
16,TATGCCCA,-0.0906
17,AAATGCAC,0.137
18,TCCATGGA,0.142
19,GAGATAGA,-0.0146
20,GGCCTCTA,-0.0631
21,CCATATTA,0.24
22,AAGTGTAC,0.00608
23,GGTTGAAA,0.164
24,CGCAAACC,-0.0641
25,GTGATTGA,0.176

# Four records picked at random from the list so far, as already listed:
row,Sequence,PBM E-score
15,ATCAAGTG,-0.00308
20,GGCCTCTA,-0.0631
1,AGGCAGAC,-0.205
17,AAATGCAC,0.137

# Additional results:

row,Sequence,PBM E-score
1,AGGAGTTC,-0.0378
2,AACTTCAG,0.0633
3,AGGCATGC,0.0328
4,CGCGAGAC,0.0103
5,CCCATGTA,-0.027
6,AAGGAAGA,0.0213
7,ACCTGCTG,0.0821
8,AAACCCGA,0.261
9,AGCGTCGA,0.124
10,CAAACAGC,0.0568
11,GGTTGGAC,-0.142
12,CGACGGTC,-0.183
13,AAGTGCTA,0.0165
14,ACCCCGAT,-0.162
15,AGCTTTCA,-0.0216
16,AATGGCCA,-0.054
17,GCTGCATA,0.0463
18,CTCATCAC,0.0219
19,GATCATGA,0.053
20,CAAACAAA,0.0409
21,AAGGGAGA,-0.219
22,TGGCTACA,0.0986
23,CACCTTGC,-0.0241
24,AAGGGCCA,-0.0432
25,CGCGCAAA,0.224

row,Sequence,PBM E-score
1,ACTCCTAA,0.0721
2,CTGGGTAA,0.107
3,ACTGCGTA,-0.206
4,ATAACATA,0.244
5,CGCCCGAG,-0.0413
6,TCCACTAA,0.0479
7,ATCGGGTG,0.125
8,CTGCCCCA,-0.041
9,ATACACGC,0.0444
10,AACACAAT,0.144
11,GTCCAGTA,-0.00318
12,ATTGTACG,0.0532
13,GAAACTAA,0.00343
14,GCTATGAA,0.163
15,ACGCTTTC,-0.171
16,CTGGCATC,-0.233
17,AGGGCCTA,-0.116
18,AATGTGCT,0.0764
19,TCCGGTCA,0.00023
20,AAGGTATC,-0.00987
21,CTGGCGTA,-0.272
22,CTATGGTC,-0.0584
23,AATCCGCA,0.174
24,CCAAGCCA,-0.0879
25,TCGTACAA,0.195

row,Sequence,PBM E-score
1,AAGAAAAG,0.125
2,CACTACTG,0.0352
3,AATAACAA,0.174
4,GAAGGCCA,-0.209
5,CAACGCGG,-0.0643
6,ACAGCCGC,-0.102
7,ACCATTCA,0.0103
8,ATCTTATA,0.237
9,CCCAGATA,-0.0909
10,ATTGACCG,0.122
11,ACAAGCCG,-0.016
12,GAACACGA,0.0502
13,AAGATAGT,0.2
14,GGTTCAAC,-0.159
15,GGTGCGAA,0.00736
16,TCGACACA,0.0129
17,ATAGAGTA,0.16
18,CACTACCG,-0.183
19,CCGGCTGA,-0.151
20,GGGGCGTA,-0.194
21,CCAGCTCA,-0.0366
22,ACTTTGTC,-0.0117
23,TAAACACA,0.125
24,ATGTCAAC,0.0562
25,AGGATCCG,-0.176

row,Sequence,PBM E-score
1,ACAAAGCC,0.0466
2,AGGTTCGA,0.144
3,AATGATTG,0.143
4,AGCAGAAT,0.152
5,CGGTTTAG,0.0356
6,GGGTGACA,-0.174
7,AGTCGGAA,0.114
8,TCCAGCAA,0.0417
9,GTGGCGCA,-0.112
10,CTACGATA,0.206
11,AGGTTATC,-0.0544
12,CCGTCCAC,-0.00544
13,TCCTGAAA,-0.00985
14,AATGAAAA,0.246
15,AATGGTGG,-0.0413
16,ACTGTCGG,-0.125
17,AGACTGTA,0.0447
18,ATCACGTC,0.16
19,AGATCGGG,-0.195
20,GCGTCGGA,-0.0986
21,CCTATTCC,0.0141
22,ATAAAAGA,0.221

# As entered above:
# Entry of AGGCATGC under PBM E-score: 0.0328
# Entry of TCACGGGA under PBM E-score: 0.154
